Data on one substance can be found in paper doi:10.1101/2021.07.27.453980.

This assay has as its target T1, Abz-labelled human GM130 C-terminus mimicking peptide (human).
T1 sequence (peptide, Abz on the N-terminus): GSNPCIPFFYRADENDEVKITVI
The experiment in a line: other fluorescence titration.

Results are given in words; binding and its absence hold for the method and conditions named. Binding calls can cover weak binding; strength is not graded here.

On to “human DGRASP65 (GRASP domain of GRASP65) (domain or fragment)”, for which the binding entry was “binds”.
